Measurements reported in PubChem BioAssay AID652243 (Drosophila RNAi Screening Center, 2013)
Aim: 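Knock-downs that decrease or increase androgen receptor reporter signal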 (primary screen). Cell system: Drosophila S2R+ cells. Knock-down reagent: long dsRNA against Drosophila genes. Duration: 72 h (48 h, then 24 h hormone). Treatment: synthetic androgen R1881 at 10 nM for 24 h. Measured: 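Firefly light from an androgen-responsive reporter and Renilla control light per well, raw and unnormalised, for each of two replicates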. Scale: firefly reporter light: higher = more light from androgen-responsive reporter; Renilla control light: higher = more constitutive control signal (cell number, transfection). Hit rule: 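Across duplicate plates, a knock-down whose log firefly/Renilla ratio shifted a set fold down or up from the GFP/LacZ control mean was a hit; the downward cut appears as both 1.5 and 3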. Calls: active = hit: reporter lowered or raised; inactive = no hit.
In all, the deposit lists about 24,000 reagents; below is a random part of those with a known target gene and a result. In the full data, 246 (1%) got an active call. 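Plates not normalised; calls are printed but the firefly/Renilla ratio behind them is not deposited; fold cut for lowering reported inconsistently.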 The raw values are shown without normalisation. The numbers tell different reagents against one gene apart. A plus sign joins genes that one reagent is predicted to hit. The record does not give: the amount of reagent.

CG13614 scored firefly reporter light, replicate 1 = 1.85e5; firefly reporter light, replicate 2 = 1.55e5; Renilla control light, replicate 1 = 1.98e6; Renilla control light, replicate 2 = 2.12e6; inactive.
Ir94b showed firefly reporter light, replicate 1 = 8.53e5; firefly reporter light, replicate 2 = 9.53e5; Renilla control light, replicate 1 = 1.59e6; Renilla control light, replicate 2 = 1.40e6; inactive.
Against CG13841 #1, the entry reads firefly reporter light, replicate 1 = 1.70e5; firefly reporter light, replicate 2 = 1.58e5; Renilla control light, replicate 1 = 1.51e6; Renilla control light, replicate 2 = 1.21e6; inactive.
CG13841 #2 gave firefly reporter light, replicate 1 = 2.11e5; firefly reporter light, replicate 2 = 2.05e5; Renilla control light, replicate 1 = 4.43e5; Renilla control light, replicate 2 = 4.24e5; inactive.
alien gave firefly reporter light, replicate 1 = 1.04e6; firefly reporter light, replicate 2 = 4.14e5; Renilla control light, replicate 1 = 2.16e6; Renilla control light, replicate 2 = 1.03e6; inactive.

Just “firefly reporter light, replicate 2” (2 entries from above):
CG13841 #1	1.58e5
CG13841 #2	2.05e5

Next records follow:
CG7099 #1 scored firefly reporter light, replicate 1 = 9.98e5; firefly reporter light, replicate 2 = 1.16e6; Renilla control light, replicate 1 = 1.78e6; Renilla control light, replicate 2 = 1.91e6; inactive.
After knock-down of CG7099 #2, the screen gave firefly reporter light, replicate 1 = 3.25e5; firefly reporter light, replicate 2 = 2.64e5; Renilla control light, replicate 1 = 5.37e5; Renilla control light, replicate 2 = 6.66e5; inactive.
CG15172 #1 scored firefly reporter light, replicate 1 = 1.03e5; firefly reporter light, replicate 2 = 1.35e5; Renilla control light, replicate 1 = 1.31e6; Renilla control light, replicate 2 = 1.12e6; inactive.
CG15172 #2 scored firefly reporter light, replicate 1 = 2.27e5; firefly reporter light, replicate 2 = 3.20e5; Renilla control light, replicate 1 = 7.47e5; Renilla control light, replicate 2 = 8.22e5; inactive.
RpL41 scored firefly reporter light, replicate 1 = 6.53e5; firefly reporter light, replicate 2 = 1.35e6; Renilla control light, replicate 1 = 8.45e5; Renilla control light, replicate 2 = 1.91e6; inactive.
For AnxB9 #1 the deposit lists firefly reporter light, replicate 1 = 85692; firefly reporter light, replicate 2 = 91748; Renilla control light, replicate 1 = 6.73e5; Renilla control light, replicate 2 = 6.40e5; inactive.
Silencing of AnxB9 #2 gave: firefly reporter light, replicate 1 = 9.03e5; firefly reporter light, replicate 2 = 7.64e5; Renilla control light, replicate 1 = 9.03e5; Renilla control light, replicate 2 = 7.22e5; inactive.
With knock-down of AnxB9 #3, the screen gave firefly reporter light, replicate 1 = 8.38e5; firefly reporter light, replicate 2 = 7.75e5; Renilla control light, replicate 1 = 1.74e6; Renilla control light, replicate 2 = 1.54e6; inactive.
After knock-down of CG34148 + P5CDh2 the results were firefly reporter light, replicate 1 = 1.46e5; firefly reporter light, replicate 2 = 1.32e5; Renilla control light, replicate 1 = 95163; Renilla control light, replicate 2 = 1.09e5; inactive.
